Literature values in patent US11891425B2, “Thioamide-modified peptides and uses thereof” (THE TRUSTEES OF THE UNIVERSITY OF PENNSYLVANIA, priority 2014, dated 2024).
Some entries share one result that the patent states for a list of compounds. At least one structure is not confirmed: it was looked up by name or label, or the drawing left a doubt.

Conditions: prescribed injectables; cited from earlier work

CCCCCCCCCCCCCCCC(=O)N[C@@H](CCC(=O)NCCCC[C@H](NC(=O)[C@H](C)NC(=O)[C@H](C)NC(=O)[C@H](CCC(N)=O)NC(=O)CNC(=O)[C@H](CCC(=O)O)NC(=O)[C@H](CC(C)C)NC(=O)[C@H](Cc1ccc(O)cc1)NC(=O)[C@H](CO)NC(=O)[C@H](CO)NC(=O)[C@@H](NC(=O)[C@H](CC(=O)O)NC(=O)[C@H](CO)NC(=O)[C@@H](NC(=O)[C@H](Cc1ccccc1)NC(=O)[C@@H](NC(=O)CNC(=O)[C@H](CCC(=O)O)NC(=O)[C@H](C)NC(=O)[C@@H](N)Cc1cnc[nH]1)[C@@H](C)O)[C@@H](C)O)C(C)C)C(=O)N[C@@H](CCC(=O)O)C(=O)N[C@@H](Cc1ccccc1)C(=O)N[C@H](C(=O)N[C@@H](C)C(=O)N[C@@H](Cc1c[nH]c2ccccc12)C(=O)N[C@@H](CC(C)C)C(=O)N[C@H](C(=O)N[C@@H](CCCNC(=N)N)C(=O)NCC(=O)N[C@@H](CCCNC(=N)N)C(=O)NCC(=O)O)C(C)C)[C@@H](C)CC)C(=O)O [liraglutide]
reduction in hemoglobin A1c: 1-2%
